This list was built around the results that the source calls inconclusive (neither active nor inactive); the mix of calls is not that of the screen. Potencies beside an inconclusive call are fits to weak or partial responses and may not hold up. The source made the active and inactive calls. How the source made its calls: active means hit-call score of the fitted dose curve at least 0.9, where 1 is the maximum; inconclusive means response in the unintended direction; inactive means score below 0.9.
Each compound was assayed against human Thyroid Receptor alpha (THRa1), THRA (gene 7067) (UniProt P10827) (assay: ATG_THRa1_TRANS: Attagene TRANS-FACTORIAL HepG2 Assay for human Thyroid Receptor alpha (THRa1) (AID 2283014)).
Protocol: ATG_TRANS is a cell-based, multiplexed-readout assay that uses HepG2, a human liver cell line, with measurements taken at 24 hours after chemical dosing in a 24-well plate.ATG_THRa1_TRANS is one of 30 assay component(s) measured or calculated from the ATG_TRANS assay. It is designed to make measurements of mRNA induction, a form of inducible reporter, as detected with fluorescence intensity signals by Reverse transcription polymerase chain reaction (RT-PCR) and Capillary electrophoresis technology.Data from the assay component ATG_THRa1_TRANS was analyzed into 1 assay endpoint. This assay endpoint, ATG_THRa1_TRANS, was analyzed in the positive analysis fitting direction relative to DMSO as the negative control and baseline of activity. Using a type of inducible reporter, measures of mRNA for gain-of-signal activity can be used to understand the reporter gene at the transcription factor-level as they relate to the gene THRA. Furthermore, this assay endpoint can be referred to as a primary readout, because this assay has produced multiple assay endpoints where this one serves a reporter gene function. To generalize the intended target to other relatable targets, this assay endpoint is annotated to the nuclear receptor intended target family, where the subfamily is non-steroidal.
Human liver HepG2 cells are transiently transfected with multiple reporter transcription units (MRTUs) in 6-well plates using FuGene 6 reagent (Roche; 3 ml FuGene/1 mg DNA). The MRTU constructs are regulated by a cis-regulating element (promoter). […] A major difference between the CIS and TRANS system is that in CIS activities of endogenous TFs are measured, whereas the TRANS assay evaluates changes in activities of exogenous, chimeric NR-Gal4 proteins. […] At the end of 24 hour incubation, total RNA was isolated using TriZol reagent (Invitrogen). The isolated RNA is then reverse-transcribed using oligo(dT) primer and Mo-MLV reverse transcriptase (Invitrogen) with DNAse I (Ambion) treatment for 30 min. The one-tenth of the produced cDNA was amplified by PCR using Taq DNA polymerase (Invitrogen) and two reporter sequence-specific primers. The PCR products were fluorescently labeled by primer extension with 6-arboxyfluorescein (6-FAM) 5'-labeled reporter sequence-specific primer (2 min at 95 C, 20 s at 68 C and 10 min at 72 C) and these products were digested with 5U of HpaI (New England Biolabs) for 2h at 37 C. The fragments were purified using Qiaquick PCR columns (Qiagen), analyzed on an ABI 3130xL genetic analyzer (Applied Biosystems) with peak positions identified by using a set of X-rhodamine (ROX)-labeled MapMarker1000 molecular weight standards (BioVentures). The raw capillary electrophoresis data was processed using Attagraph software (Attagene).

Protein sequences, listed by entry. Tags and fused reporters are not part of them. Lines headed by an entry give the natural chain unless they say otherwise; changes in a name come on top.
UniProt P10827: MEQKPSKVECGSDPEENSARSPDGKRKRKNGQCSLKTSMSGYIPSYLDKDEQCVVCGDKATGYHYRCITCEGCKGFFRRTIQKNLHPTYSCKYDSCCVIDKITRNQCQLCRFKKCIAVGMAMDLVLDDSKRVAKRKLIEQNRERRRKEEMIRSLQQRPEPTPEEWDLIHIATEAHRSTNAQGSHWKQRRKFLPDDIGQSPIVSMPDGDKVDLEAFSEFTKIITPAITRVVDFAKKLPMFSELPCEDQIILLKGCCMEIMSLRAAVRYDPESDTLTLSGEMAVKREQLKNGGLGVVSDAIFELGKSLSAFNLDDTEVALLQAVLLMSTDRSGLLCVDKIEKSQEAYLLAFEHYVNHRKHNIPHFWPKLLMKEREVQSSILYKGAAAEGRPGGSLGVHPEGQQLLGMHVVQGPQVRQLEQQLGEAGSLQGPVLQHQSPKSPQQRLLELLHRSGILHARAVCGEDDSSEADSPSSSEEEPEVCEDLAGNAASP

| SMILES | AC50 | outcome |
| --- | --- | --- |
| c1ccc2c(c1)Oc1ccccc1O2 | inconclusive: 0.0823 µM |  |
| CC(COc1ccc(Oc2ccccc2)cc1)Oc1ccccn1 (stereo not given) | inconclusive: 50 µM |  |
| CCNC(=O)NC(=O)C(C#N)=NOC |  | inactive |
| COC(=O)c1ccccc1N |  | inactive |
| COC(=O)c1ccccc1S(=O)(=O)NC(=O)Nc1nc(C)cc(C)n1 | inconclusive: 2.94 µM |  |
| COCc1cnc(C2=NC(C)(C(C)C)C(=O)N2)c(C(=O)O)c1 (stereo not given) |  | inactive |
| CCOP(=S)(OCC)Oc1ccc(Cl)cc1Cl |  | inactive |
| Nc1cc2c3c(c1)C(c1ccccc1)=N[C@@H](NC(=O)c1cccnc1)C(=O)N3CC2 | inconclusive: 19.8 µM |  |
| O=c1[nH]c(Cl)c(Cl)cc1Cl |  | inactive |
| CCOP(=S)(OCC)OP(=S)(OCC)OCC |  | inactive |
| COc1ccc([N+](=O)[O-])cc1O |  | inactive |
| Cc1ccc(N=CN(C)C=Nc2ccc(C)cc2C)c(C)c1 | inconclusive: 0.962 µM |  |
| CC(O)C#N (stereo not given) |  | inactive |
| C=CCc1ccc(OC(=O)Cc2ccccc2)c(OC)c1 |  | inactive |
| N#CC(Br)(Br)C(N)=O |  | inactive |
| CCOP(=O)(OCC)Oc1cc(C)nc(C(C)C)n1 | inconclusive: 0.0129 µM |  |
| c1cc[c]([Sb]([c]2ccccc2)[c]2ccccc2)cc1 |  | inactive |

Some of the entries above in another layout:
SMILES | AC50 | outcome
CC(COc1ccc(Oc2ccccc2)cc1)Oc1ccccn1 (stereo not given) | inconclusive: 50 µM | 
CC(O)C#N (stereo not given) |  | inactive

Remaining list, next part:

| SMILES | AC50 | outcome |
| --- | --- | --- |
| O=P1(NCCCl)OCCCN1CCCl (stereo not given) | inconclusive: 100 µM |  |
| COCCOCCO | inconclusive: 19.8 µM |  |
| Cc1cc(-c2cc(C)c(N)c(C)c2)cc(C)c1N |  | inactive |
| CCCCCCCCCCCCBr | inconclusive: 49.3 µM |  |
| CNC(=N[N+](=O)[O-])NCC1CCOC1 (stereo not given) | inconclusive: 5.53 µM |  |
| Clc1cccc(C(Cl)(Cl)Cl)n1 |  | inactive |
| CCC(C)c1cc(C(C)(C)C)cc(-n2nc3ccccc3n2)c1O (stereo not given) |  | inactive |
| Cc1cc(Cl)ccc1O | inconclusive: 1.88 µM |  |
| COc1cc(OC)nc(NC(=O)NS(=O)(=O)c2cc(NC=O)ccc2C(=O)N(C)C)n1 | inconclusive: 0.0129 µM |  |
| COS(=O)(=O)c1ccc(C)cc1 |  | inactive |
| CS(=O)(=O)c1ccc(C(=O)C2C(=O)CCCC2=O)c(Cl)c1COCC(F)(F)F | inconclusive: 23.4 µM |  |
| CCOP(=S)(NC(C)C)Oc1ccccc1C(=O)OC(C)C (stereo not given) | inconclusive: 23.7 µM |  |
| CCOC(=O)[C@]1(c2ccccc2)Oc2ccccc2[C@@H]1N |  | inactive |
| c1ccc2c(c1)Nc1ccccc1S2 |  | inactive |
| Cc1ccc(N)c(N)c1 | inconclusive: 1.66 µM |  |
| CCOC(=O)C(Cl)Cc1cc(-n2nc(C)n(C(F)F)c2=O)c(F)cc1Cl (stereo not given) |  | inactive |
| ClC1=C(Cl)[C@]2(Cl)[C@@H]3[C@H]4C[C@H]([C@@H]5O[C@H]45)[C@@H]3[C@@]1(Cl)C2(Cl)Cl |  | inactive |

From PubChem BioAssay (EPA / NIEHS)
